The source of these data is PubChem BioAssay AID2685 (National Center for Advancing Translational Sciences (NCATS), 2010).

The other results are listed elsewhere or left out. Shown are side measurements of this screen, not its main read-out; they come without a call. Compounds called inactive in the main read-out are mostly missing here. Words in brackets tell the shape of the fitted curve; partial curves, single points and poor fits give uncertain potencies.

A short description of this experiment: qHTS Assay for Lipid Storage Modulators in Drosophila S3 Cells.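 On cell number change: cells counted by Cell Tracker Red CMTPX staining in the red channel.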 The conditions noted are these: BODIPY lipid droplet fluorescence, 18-24 h; for cell number change: measured here: cell count max response, cells fed with added oleic acid. The text has this: NIH Molecular Libraries Probe Production Centers Network [MLPCN] NIH Chemical Genomics Center [NCGC] MLPCN Grant: 1 R03 MH085686-01 Assay Submitter (PI): Beller, Mathias; Max-Planck-Institut fur Biophysikalische Chemie NCGC Assay Overview: Storing lipids as a reservoir for energy or the anabolism of elementary metabolites is a common feature of probably all cells and is conserved from bacteria to humans. The universal cellular lipid storage organelle is the so-called lipid storage droplet (LD). Although ubiquitous, LDs share a simple structure composed of a hydrophobic core that harbors the storage lipids, which is shielded by a droplet-specific phospholipid monolayer to which proteins are attached. The current model of LD biogenesis involves an incorporation of the lipid core into the membrane leaflets of the endoplasmic reticulum (ER) followed by a subsequent budding-like maturation of a LD, which ultimately pinches off. Once released, LD volume can increase by localized lipogenesis or fusion of existing droplet. Storage lipids are re-mobilized enzymatically by lipase activity. Lipase regulation in the adipocyte is heavily studied and involves multiple components including catecholamine signaling, the LD-associated proteins Perilipin and comparative gene identification (CGI-58) and at least two lipases named hormone sensitive lipase (HSL) and adipocyte triglyceride lipase (ATGL). LD regulation outside of the adipocyte is poorly understood and only few components are known. However, there is an urgent need to learn more about ectopic fat depots as mislocalized storage of lipids, for example in the liver or muscle, is an eminent health problem associated with insulin resistance or the metabolic syndrome. We developed a laser-scanning cytometer assay to enable 1,536-well screening and combined the results of the small molecules screen with an RNAi database based on lipid storage.
Triacsin C (Sigma-Aldrich T-4540), an inhibitor of long-chain fatty acyl CoA synthetase that blocks synthesis of triglycerides, was used as a positive control for lipid under-storage. A total of 23 nL of compound solution of different concentrations were transferred to the assay plates using a Kalypsys pin tool equipped with a 1,536-pin array containing 10-nL slotted pins (FP1S10, 0.457-mm diameter, 50.8 mm long; V&P Scientific). One microliter of oleic acid (400 uM) was added, and the plate was lidded with stainless steel rubber gasket lined lids containing pinholes. […] Fluorescence was detected by excitation of the fluorophores with a 488-nm laser on an Acumen Explorer (TTP Lab Tech). The total intensity in channel 2 (500-530 nm) reflected lipid droplet accumulation. Cells were detected using channel 3 (575-640 nm) with 5-um width and 100-um depth filters. The ratio of the number of objects in PMT channel 2 over the number of objects in PMT channel 3 was also calculated. Percent activity was computed relative to an internal control (100% inhibited lipid droplet deposition due to the presence of 20 uM Triacsin C), which was added to 32 wells/plate.

Setting [1] is: measured here: cell number channel AC50, cells fed with added oleic acid.
Where [2] appears, read: measured here: lipid fluorescence (Fed channel) AC50, cells fed with added oleic acid.

As a reminder, the AC50 is the concentration at which the activity in the assay is half-maximal. Low values mean activity at low concentration, high ones activity only at high concentration. With `COc1ccc(-c2cn(-c3ccc(C)c(Cl)c3)c(=S)[nH]2)cc1OC`, the cell number change worked out at 34%. The half-maximal activity concentration (AC50) under setting [1] is 3.26 µM [rising, full curve, poor fit].

In the case of `CCOc1ccccc1Nc1nc(-c2sc(NC(=O)c3cccc(Cl)c3)nc2C)cs1`, the cell number change amounted to 138%.

Consider `FC(F)(F)c1nc(NCc2ccccc2)c2nnn(Cc3ccccc3)c2n1`, for which the cell number change was -53.4%. Further, the AC50 under setting [1] was 10.3 µM [falling, partial curve, poor fit].

For the molecule `COc1cc(-c2nc3ccc4ccccc4c3c3c2CCC3)cc(OC)c1O`, the cell number change is -25.2%. Moreover, under setting [2], the concentration at half-maximal activity (AC50) was 18.4 µM [falling, single point].

On to `CN(C)c1ccc(C2N3CC4(C)CN2CC(C)(C3)C4O)cc1` (stereo unspecified), for which the cell number change is -12.6%. Besides, the AC50 under setting [2] is 29.1 µM [rising, single point].

As for `N#Cc1ccc(-c2ccco2)nc1SCC(=O)c1ccc(Cl)cc1`, the cell number change was -12.6%. For the same molecule, the AC50 under setting [2] is 6.51 µM [falling, partial curve, poor fit].

Turning to `Nc1ccc(S(=O)(=O)NNC(=O)C(=O)NNc2ccccn2)cc1`, the cell number change was -149%. For the same molecule, the AC50 under setting [1] is 25.9 µM [falling, partial curve]. For the same molecule, the AC50 under setting [2] was 23.1 µM [falling, partial curve].

Take `COC(=O)c1cc(S(=O)(=O)NCC2CCN(Cc3cc(C)ccc3C)CC2)cn1C`: the cell number change was -18.6%.

For the molecule `CCOC(=O)Nc1ccc2nc(N3CCCCCC3)sc2c1`, the cell number change was found to be 16.9%. Moreover, the AC50 under setting [1] is 0.146 µM [rising, full curve, poor fit]. Further, the concentration at half-maximal activity (AC50) under setting [2] was 0.651 µM [rising, partial curve].

Consider `O=C(c1ccco1)N1CCN(c2cc(N3CCOCC3)c(F)cc2[N+](=O)[O-])CC1`, for which the cell number change is -46.3%. Moreover, under setting [1], the AC50 was 8.2 µM [falling, partial curve].

Regarding `CCc1nc(SCC(=O)Nc2ccc(C(=O)O)cc2)n[nH]1`, under setting [2], the AC50 was 32.6 µM [falling, single point].

Turning to `COc1ccc(-c2nc3ccccc3o2)cc1NC(=O)c1ccc(Br)o1`, the cell number change was -19.2%.

Turning to `Cc1ccc(OCC(=O)O)c(-n2nc3ccccc3n2)c1`, the cell number change stood at 0.884%. Also, under setting [2], the AC50 is 1.3 µM [falling, full curve].

Regarding `COc1ccc(CCNC(=O)Cc2ccc(NS(=O)(=O)c3ccc(F)cc3)cc2)cc1OC`, the cell number change was found to be 0.516%. The AC50 under setting [2] was 5.17 µM [rising, partial curve].

As to `O=C(CSc1nc2ccccc2c(=O)n1-c1ccc(F)cc1)NCc1ccco1`, the AC50 was 0.82 µM [rising, full curve] under setting [1] and 0.651 µM [rising, single point] under setting [2].

Consider `O=C(O)c1ccccc1-c1nc2ccccc2c(=O)[nH]1`, for which the cell number change was -36.6%. Also, the AC50 under setting [1] was 2.31 µM [falling, full curve, poor fit]. For the same molecule, under setting [2], the AC50 is 29.1 µM [falling, single point].

Regarding `Cc1nn(C)cc1/C=N/O`, the cell number change is -33.3%. For the same molecule, the AC50 under setting [1] was 4.11 µM [falling, full curve, poor fit]. Further, under setting [2], the AC50 was 0.116 µM [falling, full curve].

Turning to `Cc1cccc(C)c1NC(=O)CN(C)C(=O)c1cccc(NS(=O)(=O)c2ccccc2)c1`, the cell number change was -10.9%. Moreover, under setting [2], the half-maximal activity concentration (AC50) was 16.4 µM [rising, single point].

In the case of `CCCNC(=O)c1ccccc1NC(=O)c1ccc2c(c1)NC(=O)C(C)S2` (stereo unspecified), the cell number change is -15.9%.

Regarding `CSc1ccccc1OCc1cc(C(=O)N[C@H]2CCCCNC2=O)no1`, the cell number change is -20.5%. Further, under setting [2], the AC50 was 29.1 µM [falling, single point].

In the case of `NC(=O)[C@@H]1CC2(CC(c3cccc(NC(=O)[C@@H]4CCC(=O)N4)c3)=NO2)CN1C(=O)Cc1ccc([N+](=O)[O-])cc1` (stereo partly specified), the cell number change is 25%. In addition, under setting [2], the concentration at half-maximal activity (AC50) is 29.1 µM [rising, single point].

Take `Cc1cc2nc(CS(=O)(=O)c3ccccc3)cc(=O)n2[nH]1`: the cell number change was -42.9%. In addition, the AC50 under setting [1] is 6.51 µM [falling, full curve, poor fit].

`O=[N+]([O-])c1ccc2nc(Cl)nc(-c3ccccc3)c2c1`: the cell number change was found to be 15.3%.

As to `CC(=O)c1ccc(OCC(=O)OCC(=O)NCc2ccco2)cc1`, the cell number change stood at 18.2%. Under setting [2], the AC50 was 14.6 µM [rising, partial curve, poor fit].

Consider `Cc1ccc(/C=N/N2CCN(Cc3ccccc3)CC2)cc1`, for which the cell number change was -8.7%. Further, the AC50 under setting [1] was 0.517 µM [falling, single point].

On to `Cc1ccc(/C=C/C(=O)c2ccc(C)cc2)cc1`, for which the cell number change was -23.8%. Also, under setting [2], the AC50 is 14.6 µM [falling, partial curve, poor fit].

`O=C(c1ccc(Cl)c(S(=O)(=O)N2CCCC2)c1)N1CCN(c2ccccc2)CC1`: the cell number change is 14.7%.

`CN(C)c1ccc(/C=C2/SC(=O)N(CCN=C3NS(=O)(=O)c4ccccc43)C2=O)cc1`: the cell number change is -17.9%. Under setting [2], the AC50 is 0.0116 µM [falling, full curve, poor fit].

With `Cc1ccccc1OCCC(=O)N1CCN(S(=O)(=O)c2ccccc2F)CC1`, the AC50 under setting [2] was 20.6 µM [rising, single point].

As for `COc1cccc(CN(C)C(=O)c2cc(S(=O)(=O)NCc3ccccc3)ccc2C)c1OC`, the cell number change turned out to be 130%. Under setting [1], the AC50 was 23.1 µM [rising, partial curve].
